Laboratory results taken from paper PMC5664587 (Fluids and Barriers of the CNS, 2017).
Where two headings read alike, the source gives them in different places.

What was measured:
[1] = average of all three concentration groups
[2] = in vivo; details: rat, plasma, intravenous
[3] = in vitro; details: Sprague-Dawley, rat, brain homogenate; for fraction unbound at 6 h: pH 7.4, average fu,brain, average of all three concentration groups
[4] = rats, intravenous bolus; cited from earlier work
[5] = in situ rat brain perfusion, 61.7 µM, pH 7.4; cited from earlier work
[6] = test system: BBMEC; details: bovine BBMEC; cited from earlier work
[7] = test system: hBMEC; details: human hBMEC; cited from earlier work
[8] = test system: Caco-2 cells; details: both A–B and B–A directions; cited from earlier work
[9] = test system: MDCKII (Madin-Darby canine kidney II cells); details: both A–B and B–A directions; cited from earlier work
[10] = human subjects, cited from earlier work
[11] = test system: Pgp; details: Caco-2 or Pgp transfected cell lines; cited from earlier work

| average fu,brain [1] | fraction unbound [2] | fraction unbound at 6 h [3] | fraction unbound at 6 h, 0.5 µM ([3]; pH 7.4, fu,brain, incubation concentration 0.5 µM, 6 h, 37 °C) | fraction unbound at 6 h, 1 µM ([3]; pH 7.4, fu,brain, incubation concentration 1.0 µM, 6 h, 37 °C) | SMILES | time of peak of Cu,brain [4] | Kin (unidirectional transfer constant into brain) [5] | Papp [6] | Papp [7] | Papp [8] | Papp [9] | decrease of AUC ([10]; by apple juice) | decrease of AUC ([10]; by orange juice) | Pgp substrate status [11] |
| --- | --- | --- | --- | --- | --- | --- | --- | --- | --- | --- | --- | --- | --- | --- |
| 0.875 ± 0.067 | ~1 | 0.88 ± 0.07 | 0.74 ± 0.04 | 0.8 ± 0.04 | CC(C)NC[C@H](O)COc1ccc(CC(N)=O)cc1 [S-atenolol, S-(−)-atenolol] | – | – | – | – | – | – | – | – | – |
| – | – | 0.875 ± 0.067 | – | – | CC(C)NCC(O)COc1ccc(CC(N)=O)cc1 (stereo not drawn) [atenolol] | around 10 min | 1.8 µL/min/g brain | 48.5 ×10⁻⁶ cm/s | 9.78 ×10⁻⁶ cm/s | 0.18 × 10^−6 − 11 × 10^−6 cm/s | 0.13 × 10^−6 − 0.8 × 10^−6 cm/s | 81% | 40% | not a Pgp substrate |
